{
  "sequences": {"note": "The chains behind the UniProt entries cited, without tags or fusion partners. Where a name states a change or a piece, a line headed by the entry shows the natural chain unless it says otherwise.", "UniProt Q05209": "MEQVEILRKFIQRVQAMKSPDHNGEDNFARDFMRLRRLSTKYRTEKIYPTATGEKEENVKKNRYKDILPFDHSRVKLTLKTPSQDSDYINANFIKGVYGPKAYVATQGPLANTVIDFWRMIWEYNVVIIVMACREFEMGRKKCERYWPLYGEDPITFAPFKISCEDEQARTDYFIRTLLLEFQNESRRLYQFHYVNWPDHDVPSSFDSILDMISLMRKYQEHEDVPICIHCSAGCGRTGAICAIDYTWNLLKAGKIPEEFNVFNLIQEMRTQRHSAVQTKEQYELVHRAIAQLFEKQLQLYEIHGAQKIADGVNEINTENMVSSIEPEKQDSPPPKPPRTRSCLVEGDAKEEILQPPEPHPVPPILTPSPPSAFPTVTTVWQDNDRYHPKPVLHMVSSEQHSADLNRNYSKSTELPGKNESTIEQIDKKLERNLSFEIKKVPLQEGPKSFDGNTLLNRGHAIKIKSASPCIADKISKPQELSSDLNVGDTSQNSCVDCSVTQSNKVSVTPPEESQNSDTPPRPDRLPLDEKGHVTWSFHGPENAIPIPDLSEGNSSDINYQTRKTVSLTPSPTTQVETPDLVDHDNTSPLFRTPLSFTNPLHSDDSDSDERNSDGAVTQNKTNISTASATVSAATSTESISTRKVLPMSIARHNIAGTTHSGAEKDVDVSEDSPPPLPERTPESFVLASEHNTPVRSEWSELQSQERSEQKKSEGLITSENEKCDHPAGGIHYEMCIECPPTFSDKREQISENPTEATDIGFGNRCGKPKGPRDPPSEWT", "UniProt Q969U7": "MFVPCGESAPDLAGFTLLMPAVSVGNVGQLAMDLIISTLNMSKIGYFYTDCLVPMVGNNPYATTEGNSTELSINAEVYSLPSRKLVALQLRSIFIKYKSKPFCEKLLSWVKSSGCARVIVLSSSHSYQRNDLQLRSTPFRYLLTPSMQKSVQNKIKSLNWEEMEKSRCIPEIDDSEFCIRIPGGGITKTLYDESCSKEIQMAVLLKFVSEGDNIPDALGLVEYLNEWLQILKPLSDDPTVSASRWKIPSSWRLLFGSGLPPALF", "UniProt P53611": "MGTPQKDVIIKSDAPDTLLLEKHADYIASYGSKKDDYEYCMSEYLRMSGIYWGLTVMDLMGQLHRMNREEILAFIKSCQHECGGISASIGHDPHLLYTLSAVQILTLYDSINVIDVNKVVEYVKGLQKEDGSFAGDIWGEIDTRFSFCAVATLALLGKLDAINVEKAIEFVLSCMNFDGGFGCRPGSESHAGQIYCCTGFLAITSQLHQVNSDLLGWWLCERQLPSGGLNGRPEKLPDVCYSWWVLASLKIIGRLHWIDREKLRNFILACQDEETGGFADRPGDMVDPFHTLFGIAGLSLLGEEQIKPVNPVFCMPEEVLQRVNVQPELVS", "UniProt O15315": "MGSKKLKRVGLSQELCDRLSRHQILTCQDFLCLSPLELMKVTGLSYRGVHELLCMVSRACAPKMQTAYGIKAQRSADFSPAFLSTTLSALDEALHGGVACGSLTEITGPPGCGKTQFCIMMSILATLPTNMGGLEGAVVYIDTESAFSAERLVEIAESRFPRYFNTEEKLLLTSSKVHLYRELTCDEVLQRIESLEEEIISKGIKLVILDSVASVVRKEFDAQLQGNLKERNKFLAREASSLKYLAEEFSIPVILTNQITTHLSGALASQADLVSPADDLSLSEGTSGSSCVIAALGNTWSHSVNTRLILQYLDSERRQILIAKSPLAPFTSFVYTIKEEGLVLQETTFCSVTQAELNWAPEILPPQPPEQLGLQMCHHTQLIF", "UniProt P11216": "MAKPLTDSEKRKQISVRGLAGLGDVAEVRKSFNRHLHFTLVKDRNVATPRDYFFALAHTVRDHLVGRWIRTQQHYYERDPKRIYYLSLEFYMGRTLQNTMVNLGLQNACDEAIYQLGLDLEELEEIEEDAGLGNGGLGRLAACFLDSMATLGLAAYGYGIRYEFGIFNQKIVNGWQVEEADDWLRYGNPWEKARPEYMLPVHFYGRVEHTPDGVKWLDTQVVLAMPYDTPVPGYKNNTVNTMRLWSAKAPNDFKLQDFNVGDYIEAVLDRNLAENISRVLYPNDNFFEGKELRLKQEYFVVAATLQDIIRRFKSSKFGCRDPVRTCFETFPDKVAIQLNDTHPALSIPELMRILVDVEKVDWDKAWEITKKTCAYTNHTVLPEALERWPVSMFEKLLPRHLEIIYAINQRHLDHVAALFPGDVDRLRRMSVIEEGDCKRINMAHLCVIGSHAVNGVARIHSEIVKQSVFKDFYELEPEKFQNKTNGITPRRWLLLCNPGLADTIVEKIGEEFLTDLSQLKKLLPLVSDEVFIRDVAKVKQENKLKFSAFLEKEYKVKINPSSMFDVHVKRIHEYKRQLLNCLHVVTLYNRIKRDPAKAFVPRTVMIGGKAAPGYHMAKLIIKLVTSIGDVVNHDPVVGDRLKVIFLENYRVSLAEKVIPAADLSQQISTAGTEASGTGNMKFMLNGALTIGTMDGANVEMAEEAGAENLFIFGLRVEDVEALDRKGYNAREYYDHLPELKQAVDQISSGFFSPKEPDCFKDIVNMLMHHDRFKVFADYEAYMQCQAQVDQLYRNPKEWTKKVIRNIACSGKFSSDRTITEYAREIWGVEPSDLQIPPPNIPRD", "UniProt Q9ULC3": "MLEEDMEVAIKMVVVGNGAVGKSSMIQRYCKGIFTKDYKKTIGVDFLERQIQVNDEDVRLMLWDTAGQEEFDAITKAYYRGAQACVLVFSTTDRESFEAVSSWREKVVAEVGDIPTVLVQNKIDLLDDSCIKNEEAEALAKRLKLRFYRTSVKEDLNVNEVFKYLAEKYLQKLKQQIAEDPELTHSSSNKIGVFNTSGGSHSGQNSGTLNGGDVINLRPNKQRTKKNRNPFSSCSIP", "UniProt Q96QF0": "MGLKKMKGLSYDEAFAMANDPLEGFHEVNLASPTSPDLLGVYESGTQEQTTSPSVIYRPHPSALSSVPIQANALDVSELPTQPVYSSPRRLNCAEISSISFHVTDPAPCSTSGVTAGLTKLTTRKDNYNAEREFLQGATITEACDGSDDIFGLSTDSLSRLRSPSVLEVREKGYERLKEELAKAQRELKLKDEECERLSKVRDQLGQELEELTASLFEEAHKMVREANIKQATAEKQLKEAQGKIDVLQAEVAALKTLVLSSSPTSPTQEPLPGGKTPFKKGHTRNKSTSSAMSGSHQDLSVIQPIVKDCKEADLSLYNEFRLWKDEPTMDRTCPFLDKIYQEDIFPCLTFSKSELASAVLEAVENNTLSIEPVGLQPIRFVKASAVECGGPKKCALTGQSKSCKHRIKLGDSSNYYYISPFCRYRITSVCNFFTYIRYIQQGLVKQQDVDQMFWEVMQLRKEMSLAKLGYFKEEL", "UniProt Q96E17": "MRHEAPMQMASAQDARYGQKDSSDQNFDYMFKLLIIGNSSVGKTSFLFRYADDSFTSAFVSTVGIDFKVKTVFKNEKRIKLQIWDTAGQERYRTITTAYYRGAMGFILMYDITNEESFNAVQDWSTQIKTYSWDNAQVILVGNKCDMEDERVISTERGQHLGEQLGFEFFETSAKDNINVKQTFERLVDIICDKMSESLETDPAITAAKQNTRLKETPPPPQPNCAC", "UniProt Q5THK1": "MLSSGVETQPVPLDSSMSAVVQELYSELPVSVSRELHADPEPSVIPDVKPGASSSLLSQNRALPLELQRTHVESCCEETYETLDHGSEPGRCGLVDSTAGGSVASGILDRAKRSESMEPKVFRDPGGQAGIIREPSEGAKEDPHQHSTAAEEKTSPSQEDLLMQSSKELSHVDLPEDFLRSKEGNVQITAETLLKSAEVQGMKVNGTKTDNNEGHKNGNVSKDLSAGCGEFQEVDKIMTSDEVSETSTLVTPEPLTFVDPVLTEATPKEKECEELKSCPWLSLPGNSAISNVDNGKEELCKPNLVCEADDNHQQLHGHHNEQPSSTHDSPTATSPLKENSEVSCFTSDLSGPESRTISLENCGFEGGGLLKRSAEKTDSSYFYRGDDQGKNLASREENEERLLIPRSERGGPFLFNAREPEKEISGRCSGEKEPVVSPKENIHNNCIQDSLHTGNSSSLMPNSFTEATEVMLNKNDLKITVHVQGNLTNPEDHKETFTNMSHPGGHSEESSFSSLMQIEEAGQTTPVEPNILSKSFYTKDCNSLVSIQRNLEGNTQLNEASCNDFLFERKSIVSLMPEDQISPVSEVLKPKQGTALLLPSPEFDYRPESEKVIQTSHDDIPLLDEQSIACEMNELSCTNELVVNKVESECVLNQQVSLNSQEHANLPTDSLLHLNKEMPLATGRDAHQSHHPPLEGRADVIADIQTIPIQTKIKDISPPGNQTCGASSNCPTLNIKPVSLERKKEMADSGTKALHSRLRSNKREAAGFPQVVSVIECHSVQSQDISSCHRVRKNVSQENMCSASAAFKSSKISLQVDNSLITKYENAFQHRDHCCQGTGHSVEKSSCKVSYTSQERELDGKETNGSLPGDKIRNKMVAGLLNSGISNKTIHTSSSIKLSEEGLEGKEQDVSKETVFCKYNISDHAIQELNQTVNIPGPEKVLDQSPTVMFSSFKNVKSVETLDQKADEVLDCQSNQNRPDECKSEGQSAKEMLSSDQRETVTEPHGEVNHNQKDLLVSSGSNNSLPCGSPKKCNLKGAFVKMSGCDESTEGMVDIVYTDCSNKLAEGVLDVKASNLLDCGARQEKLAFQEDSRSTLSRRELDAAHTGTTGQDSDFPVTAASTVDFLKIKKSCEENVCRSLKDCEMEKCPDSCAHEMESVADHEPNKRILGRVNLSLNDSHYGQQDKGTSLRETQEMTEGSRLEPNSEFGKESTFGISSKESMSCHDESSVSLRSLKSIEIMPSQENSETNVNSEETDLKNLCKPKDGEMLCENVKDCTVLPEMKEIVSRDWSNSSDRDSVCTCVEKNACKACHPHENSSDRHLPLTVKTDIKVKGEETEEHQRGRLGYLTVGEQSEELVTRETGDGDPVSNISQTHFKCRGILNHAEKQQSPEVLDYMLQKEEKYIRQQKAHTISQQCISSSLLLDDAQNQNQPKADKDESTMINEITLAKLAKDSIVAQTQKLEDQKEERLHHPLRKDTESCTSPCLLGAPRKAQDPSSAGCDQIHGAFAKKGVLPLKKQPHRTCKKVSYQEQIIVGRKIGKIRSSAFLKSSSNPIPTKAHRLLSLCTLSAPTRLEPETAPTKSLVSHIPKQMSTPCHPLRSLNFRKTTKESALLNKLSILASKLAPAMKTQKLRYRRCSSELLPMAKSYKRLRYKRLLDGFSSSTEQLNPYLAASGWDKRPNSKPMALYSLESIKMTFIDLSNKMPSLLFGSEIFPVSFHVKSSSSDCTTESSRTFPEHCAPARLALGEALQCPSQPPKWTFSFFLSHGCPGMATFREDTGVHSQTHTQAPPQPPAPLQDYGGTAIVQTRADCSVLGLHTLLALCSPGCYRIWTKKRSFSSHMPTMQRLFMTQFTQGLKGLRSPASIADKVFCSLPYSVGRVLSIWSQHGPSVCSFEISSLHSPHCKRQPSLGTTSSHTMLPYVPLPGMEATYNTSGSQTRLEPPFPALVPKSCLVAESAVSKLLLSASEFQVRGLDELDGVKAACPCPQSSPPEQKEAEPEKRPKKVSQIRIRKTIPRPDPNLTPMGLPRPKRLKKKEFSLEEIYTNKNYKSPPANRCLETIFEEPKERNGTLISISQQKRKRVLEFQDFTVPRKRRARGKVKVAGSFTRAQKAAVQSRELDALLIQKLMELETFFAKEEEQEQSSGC", "UniProt Q7Z6K3": "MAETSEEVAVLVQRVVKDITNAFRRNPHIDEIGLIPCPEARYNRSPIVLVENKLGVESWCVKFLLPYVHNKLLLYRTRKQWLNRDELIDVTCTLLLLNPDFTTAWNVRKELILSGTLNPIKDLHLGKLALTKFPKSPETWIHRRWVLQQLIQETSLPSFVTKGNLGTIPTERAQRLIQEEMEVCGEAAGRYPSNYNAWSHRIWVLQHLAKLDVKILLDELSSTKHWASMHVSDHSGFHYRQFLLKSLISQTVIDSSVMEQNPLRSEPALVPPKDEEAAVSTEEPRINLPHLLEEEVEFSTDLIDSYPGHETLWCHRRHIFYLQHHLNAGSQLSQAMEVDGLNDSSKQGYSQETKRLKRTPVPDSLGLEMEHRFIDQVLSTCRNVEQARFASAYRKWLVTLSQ", "UniProt Q9BZE2": "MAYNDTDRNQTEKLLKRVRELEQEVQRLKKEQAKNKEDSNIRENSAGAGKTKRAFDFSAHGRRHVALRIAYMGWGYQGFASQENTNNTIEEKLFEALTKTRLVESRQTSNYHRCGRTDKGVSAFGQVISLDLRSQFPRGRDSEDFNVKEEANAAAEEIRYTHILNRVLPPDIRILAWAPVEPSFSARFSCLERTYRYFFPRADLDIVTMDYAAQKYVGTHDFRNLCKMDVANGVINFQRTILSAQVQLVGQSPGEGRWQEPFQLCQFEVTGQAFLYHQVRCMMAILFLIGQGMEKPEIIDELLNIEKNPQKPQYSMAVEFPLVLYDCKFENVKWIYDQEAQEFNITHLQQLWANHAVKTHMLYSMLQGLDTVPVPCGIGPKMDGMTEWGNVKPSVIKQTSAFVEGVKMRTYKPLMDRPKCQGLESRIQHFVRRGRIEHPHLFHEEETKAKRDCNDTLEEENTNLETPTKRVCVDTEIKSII"},
  "source": "the supplement of paper PMC11732987",
  "about": "“Enantioselective OTUD7B fragment discovery through chemoproteomics screening and high-throughput optimisation” (Communications Chemistry, 2025)",
  "note": "The other results are listed elsewhere or left out. The data scatter; read single values as rough.",
  "data": [
    {"compound": "ClCC(=O)N[C@H]1CCCc2ccccc12", "assay": "log2 mean competition ratio of IA-DTB cysteine labelling (DMSO/compound) (log2 ratio); higher = stronger cysteine engagement by compound", "conditions": "200 µM; treatment time: 4 h; cell line lysate: HEK293T", "method": "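IA-DTB competitive cysteine chemoproteomics in HEK293T RIPA lysate. Lysates were treated with compound 29 or 30 at 50 or 200 µM for 4 h, then IA-DTB (500 µM, 1 h), trypsin-digested, NeutrAvidin-enriched and analysed by diaPASEF. Competition ratio = intensity DMSO / intensity compound (n=4 treated, n=64 DMSO); binding: mean log2 CR ≥ 1 and p ≤ 0.05 plus QC filters. Target is the cysteine site.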", "values": [
      {"target": "PSMD1 C104", "log2 mean competition ratio": -0.298},
      {"target": "RAD54L C295 (UniProt Q92698)", "log2 mean competition ratio": -0.18},
      {"target": "PTPN12 C343 (UniProt Q05209)", "log2 mean competition ratio": -0.0142},
      {"target": "R3HCC1L C40", "log2 mean competition ratio": -0.231},
      {"target": "PSMG2 C195 (UniProt Q969U7)", "log2 mean competition ratio": -0.171},
      {"target": "PTK7 C524 (UniProt Q13308)", "log2 mean competition ratio": 0.233},
      {"target": "RABGGTB C40 (UniProt P53611)", "log2 mean competition ratio": -0.107},
      {"target": "PRUNE1 C8 (UniProt Q86TP1)", "log2 mean competition ratio": 0.491},
      {"target": "RAD54B C789 (UniProt Q9Y620)", "log2 mean competition ratio": 0.027},
      {"target": "RAD51B C16 (UniProt O15315)", "log2 mean competition ratio": 0.242},
      {"target": "PSMC4 C379 (UniProt P43686)", "log2 mean competition ratio": 0.122},
      {"target": "PSMB2 C91", "log2 mean competition ratio": 0.178},
      {"target": "PYGB C326 (UniProt P11216)", "log2 mean competition ratio": 0.0892},
      {"target": "RAB23 C130 (UniProt Q9ULC3)", "log2 mean competition ratio": -0.27},
      {"target": "PSMD13 C357 (UniProt Q9UNM6)", "log2 mean competition ratio": -0.216},
      {"target": "RAB3IP C389 (UniProt Q96QF0)", "log2 mean competition ratio": 0.00105},
      {"target": "PSMD8 C173", "log2 mean competition ratio": -0.542},
      {"target": "QSER1 C1709", "log2 mean competition ratio": 0.163},
      {"target": "RAB3C C145 (UniProt Q96E17)", "log2 mean competition ratio": 0.23},
      {"target": "RAB28 C31 (UniProt P51157)", "log2 mean competition ratio": 0.158},
      {"target": "RABGAP1L C139 (UniProt Q5R372)", "log2 mean competition ratio": -0.114},
      {"target": "PRRC2C C587 (UniProt Q9Y520)", "log2 mean competition ratio": 0.00737},
      {"target": "PRRC2B C1184", "log2 mean competition ratio": 0.197},
      {"target": "PRR14L C92 (UniProt Q5THK1)", "log2 mean competition ratio": 0.159},
      {"target": "PTPN12 C470 (UniProt Q05209)", "log2 mean competition ratio": -0.0128},
      {"target": "PTAR1 C37 (UniProt Q7Z6K3)", "log2 mean competition ratio": 0.000398},
      {"target": "PXDC1 C115", "log2 mean competition ratio": 0.207},
      {"target": "PRR14L C1271 (UniProt Q5THK1)", "log2 mean competition ratio": 0.425},
      {"target": "PXK C570 (UniProt Q7Z7A4)", "log2 mean competition ratio": -0.0463},
      {"target": "RAB2B C154 (UniProt Q8WUD1)", "log2 mean competition ratio": -0.0704},
      {"target": "RABGAP1 C433 (UniProt Q9Y3P9)", "log2 mean competition ratio": -0.0725},
      {"target": "PSME2 C5 (UniProt Q9UL46)", "log2 mean competition ratio": 0.261},
      {"target": "RABGAP1 C805 (UniProt Q9Y3P9)", "log2 mean competition ratio": -0.044},
      {"target": "RAD50 C633", "log2 mean competition ratio": -0.323},
      {"target": "PUS3 C420 (UniProt Q9BZE2)", "log2 mean competition ratio": 0.309},
      {"target": "PTPRG C858 (UniProt P23470)", "log2 mean competition ratio": -0.322}
    ]}
  ]
}
